The results in this text go back to publication doi:10.1101/2025.07.28.667311.

By UniProt entry, the sequences of proteins in these tests, tags left out. Residues count along the entry.
UniProt P08575, residues 26-577: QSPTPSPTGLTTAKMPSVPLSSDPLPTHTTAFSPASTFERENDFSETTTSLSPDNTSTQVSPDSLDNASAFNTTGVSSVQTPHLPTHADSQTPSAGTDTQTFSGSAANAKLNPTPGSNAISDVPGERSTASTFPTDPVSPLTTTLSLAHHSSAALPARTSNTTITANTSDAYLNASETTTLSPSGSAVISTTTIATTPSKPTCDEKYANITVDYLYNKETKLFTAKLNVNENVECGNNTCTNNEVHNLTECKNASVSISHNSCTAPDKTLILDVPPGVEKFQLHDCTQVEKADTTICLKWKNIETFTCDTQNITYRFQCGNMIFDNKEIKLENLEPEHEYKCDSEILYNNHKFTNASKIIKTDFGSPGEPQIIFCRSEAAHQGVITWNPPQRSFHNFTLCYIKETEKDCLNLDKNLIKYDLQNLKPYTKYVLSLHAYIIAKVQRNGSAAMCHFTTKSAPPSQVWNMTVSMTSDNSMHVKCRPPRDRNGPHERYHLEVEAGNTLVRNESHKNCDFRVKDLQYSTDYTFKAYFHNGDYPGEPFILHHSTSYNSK
UniProt P20138, residues 18-259: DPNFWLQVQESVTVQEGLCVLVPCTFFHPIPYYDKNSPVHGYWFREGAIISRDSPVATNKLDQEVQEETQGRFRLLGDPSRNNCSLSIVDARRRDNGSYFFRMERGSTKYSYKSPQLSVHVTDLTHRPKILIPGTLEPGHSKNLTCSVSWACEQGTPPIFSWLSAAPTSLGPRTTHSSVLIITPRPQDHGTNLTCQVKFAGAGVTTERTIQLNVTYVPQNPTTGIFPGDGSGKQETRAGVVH

The test concerns the target recombinant human CD45 (human) (UniProt P08575). The experiment in a line: ELISA. (In an ELISA, binding on a coated surface is turned into a signal by an enzyme label.)

These are yes or no findings as the source states them, for the method shown. Some results given as binding are weak or reduced against the parent protein; the word gives no strength.

As for “recombinant hCD33-Fc (from UniProt P20138 18-259) (Fc fusion)”, the binding result was “binds”.
